The subject of this assay is L1210 leukemia ip in BDF1 mice, survival T/C. Put plainly: NCI In Vivo Anticancer Drug Screen. Data for tumor model L1210 Leukemia (intraperitoneal) in B6D2F1 (BDF1) mice. The following applies: T/C endpoint: mean survival time, higher T/C = longer survival.
[1] abbreviates: dose: 400.0 mg/kg/injection, schedule: Q01DX009 (ip), vehicle: Klucel (hydroxypropylcellulose) (HPC).
Where [2] appears, read: dose: 400.0 mg/kg/injection, schedule: Q04DX003 (ip), vehicle: saline.
Setting [3] is: dose: 50.0 mg/kg/injection, schedule: Q04DX002 (ip), vehicle: saline.
The mark [4] stands for this setting: dose: 100.0 mg/kg/injection, schedule: Q01DX009 (ip), vehicle: Klucel (hydroxypropylcellulose) (HPC).
[5] abbreviates: dose: 400.0 mg/kg/injection, schedule: Q04DX002 (ip), vehicle: Klucel (hydroxypropylcellulose) (HPC).
The mark [6] stands for this setting: dose: 400.0 mg/kg/injection, schedule: Q04DX003 (ip), vehicle: Klucel (hydroxypropylcellulose) (HPC).
Setting [7] is: dose: 400.0 mg/kg/injection, schedule: Q04DX002 (ip), vehicle: saline.

The list is a part of this screen's results and no random one: it gathers tests that were run many times, whatever their T/C, doses with no T/C, and many T/C values between a quarter and a half above the control. Further doses and runs are listed elsewhere. T/C is the treated group as % of the vehicle group. Some doses have a count of surviving animals in place of a T/C: the source holds a T/C of zero for them, seemingly a mark for toxic or unscored doses. Some doses without a T/C left all or most animals alive at the check, yet need not have been tolerated: the source hardly ever lists a survival T/C far under the control, and the zero likely stands for such cases as well. Counts of survivors are from the toxicity check (mostly the fifth day) where no day follows; animals may have died later. Schedules are NCI's codes, read here as Q, the interval in days (D) or hours (H), X, the number of doses. Some doses were run more than once; their values stand side by side, smallest first. For survival time, this PubChem deposit counts one and a half times the control or more as active, and values a quarter to a half above the control carry no call in these data; other NCI protocols may use other cut-offs. Some T/C values carry the count of animals alive at the toxicity check (mostly the fifth day); without a count, all were alive then.

In the case of `Cc1c2oc3c(C)ccc(C(=O)NC4C(=O)NC(C(C)C)C(=O)N5CC(Cl)CC5C(=O)N(C)CC(=O)N(C)C(C(C)C)C(=O)OC4C)c3nc-2c(C(=O)NC2C(=O)NC(C(C)C)C(=O)N3CC(Cl)CC3C(=O)N(C)CC(=O)N(C)C(C(C)C)C(=O)OC2C)c(N)c1=O` (stereo not drawn), the T/C reads like this: (dose: 400.0 micrograms/kg/injection, schedule: Q01DX009 (ip), vehicle: saline + alcohol) 130 % of control; (dose: 1200.0 micrograms/kg/injection, schedule: Q01DX009 (ip), vehicle: saline + alcohol) 126 % of control; (dose: 1200.0 micrograms/kg/injection, schedule: Q04DX003 (ip), vehicle: saline + alcohol) 130 % of control; (dose: 1600.0 micrograms/kg/injection, schedule: Q04DX003 (ip), vehicle: saline + alcohol) 132 % of control; (dose: 2400.0 micrograms/kg/injection, schedule: Q04DX003 (ip), vehicle: saline + alcohol) 140 % of control [7 of 8 alive]; (dose: 3200.0 micrograms/kg/injection, schedule: Q04DX003 (ip), vehicle: saline + alcohol) 146 % of control.

`O=C(NNC(=S)NC1CC2C=CC1C2)c1cccnc1` (stereo not drawn): the survivor count under setting [1] is recorded as 0 of 6.

Consider `CCc1nnc2cc(C)ccn12`, for which the survivor count (dose: 400.0 mg/kg/injection, schedule: Q04DX003 (ip), vehicle: other) is reported as 2 of 6.

Regarding `CC(CO)NC(=O)C1C=C2c3cccc4[nH]cc(c34)CC2N(C)C1` (stereo not drawn), the survivor count under setting [2] is given as 3 of 6.

With `c1ccc2c(c1)[nH]c1nc3ccncc3nc12`, under setting [2], the survivor count was 5 of 6.

In the case of `C[CH2][Sn]([CH2]C)([O]S(=O)(=O)CC12CCC(CC1=O)C2(C)C)[O]S(=O)(=O)CC12CCC(CC1=O)C2(C)C`, the T/C is 139 % of control [2 of 3 alive] (dose: 12.5 mg/kg/injection, schedule: Q01DX009 (ip), vehicle: saline); 126 % of control (dose: 28.0 mg/kg/injection, schedule: Q01DX009 (ip), vehicle: saline); 127 % of control [5 of 6 alive] under setting [3]. The survivor count runs as follows: (dose: 50.0 mg/kg/injection, schedule: Q01DX009 (ip), vehicle: saline) 0 of 3; under setting [3], 2 of 6; (dose: 65.0 mg/kg/injection, schedule: Q01DX001 (ip), vehicle: saline) 0 of 6; (dose: 75.0 mg/kg/injection, schedule: Q04DX002 (ip), vehicle: saline) 1 of 6; (dose: 100.0 mg/kg/injection, schedule: Q01DX001 (ip), vehicle: saline) 0 of 6 and 2 of 6; (dose: 100.0 mg/kg/injection, schedule: Q01DX009 (ip), vehicle: saline) 0 of 3 and 0 of 6. Further, the survivor count is 0 of 6 (dose: 100.0 mg/kg/injection, schedule: Q04DX002 (ip), vehicle: saline); 0 of 6 (dose: 110.0 mg/kg/injection, schedule: Q04DX002 (ip), vehicle: saline); 0 of 6 (dose: 150.0 mg/kg/injection, schedule: Q01DX001 (ip), vehicle: saline); 1 of 6 (dose: 200.0 mg/kg/injection, schedule: Q01DX001 (ip), vehicle: saline); 0 of 6 (dose: 200.0 mg/kg/injection, schedule: Q01DX009 (ip), vehicle: saline); 0 of 6 (dose: 225.0 mg/kg/injection, schedule: Q01DX001 (ip), vehicle: saline). Moreover, the survivor count (dose: 400.0 mg/kg/injection, schedule: Q01DX009 (ip), vehicle: saline) is recorded as 0 of 6.

For `O=C(NCc1ccncc1)Nc1ccccc1F`, the survivor count was 1 of 3 under setting [4]; 2 of 6 (dose: 400.0 mg/kg/injection, schedule: Q01DX001 (ip), vehicle: Klucel (hydroxypropylcellulose) (HPC)); 0 of 3 and 6 of 6 under setting [1]; 1 of 6 and 1 of 3 under setting [5]; 2 of 6 under setting [6].

Regarding `O=C(c1ccco1)C(O)c1ccco1` (stereo not drawn), the survivor count under setting [5] is given as 1 of 3.

Turning to `O=C(CBr)Nc1ccc(S(=O)(=O)F)cc1`, the survivor count is, setting by setting: (dose: 37.5 mg/kg/injection, schedule: Q04DX003 (ip), vehicle: carboxymethylcellulose (CMC)) 2 of 6; (dose: 75.0 mg/kg/injection, schedule: Q04DX003 (ip), vehicle: carboxymethylcellulose (CMC)) 0 of 6; (dose: 150.0 mg/kg/injection, schedule: Q01DX001 (ip), vehicle: carboxymethylcellulose (CMC)) 0 of 6; (dose: 300.0 mg/kg/injection, schedule: Q01DX001 (ip), vehicle: carboxymethylcellulose (CMC)) 0 of 6.

In the case of `COc1cc(C(=O)O/N=C(\N)CCl)cc(OC)c1OC`, the survivor count runs as follows: (dose: 100.0 mg/kg/injection, schedule: Q04DX002 (ip), vehicle: Klucel (hydroxypropylcellulose) (HPC)) 1 of 3; (dose: 200.0 mg/kg/injection, schedule: Q04DX002 (ip), vehicle: Klucel (hydroxypropylcellulose) (HPC)) 1 of 3; under setting [5], 0 of 3.

Consider `Cc1ccccc1CN1CCN(CCOC(c2ccccc2)c2ccccc2Cl)CC1` (stereo not drawn), for which the survivor count under setting [4] is 3 of 6; the survivor count (dose: 200.0 mg/kg/injection, schedule: Q01DX009 (ip), vehicle: Klucel (hydroxypropylcellulose) (HPC)) is recorded as 1 of 6; the survivor count under setting [6] was 4 of 4.

With `C[C@@H](C[P+](c1ccccc1)(c1ccccc1)c1ccccc1)[C@](OC(=O)c1ccccc1)(C(=O)c1ccccc1)c1ccccc1`, the survivor count by setting is: (dose: 100.0 mg/kg/injection, schedule: Q01DX001 (ip), vehicle: saline with Tween-80) 0 of 6; (dose: 200.0 mg/kg/injection, schedule: Q01DX001 (ip), vehicle: saline with Tween-80) 0 of 6; (dose: 400.0 mg/kg/injection, schedule: Q01DX001 (ip), vehicle: saline with Tween-80) 0 of 6.

Turning to `N=C(N)SCCCCCSC(=N)N`, the survivor count by setting is: (dose: 400.0 mg/kg/injection, schedule: Q01DX001 (ip), vehicle: saline) 0 of 4; under setting [7], 0 of 3.

Consider `OC[P+](CO)(CO)CO`, for which the survivor count reads like this: (dose: 200.0 mg/kg/injection, schedule: Q04DX002 (ip), vehicle: saline) 0 of 3; under setting [7], 0 of 3.

For `COc1cc2c(cc1OC)C(Cc1ccc(OC(=O)O)cc1)=NCC2`, the survivor count (dose: 400.0 mg/kg/injection, schedule: Q01DX001 (ip), vehicle: carboxymethylcellulose (CMC)) is listed as 1 of 4.

For the compound `COc1ccc(C(=O)/C=C/c2ccccc2Cl)cc1`, the survivor count (dose: 400.0 mg/kg/injection, schedule: Q04DX003 (ip), vehicle: saline with Tween-80) is given as 0 of 3.

For `O=C(NCc1ccc(S(=O)(=O)F)cc1)Oc1ccc([N+](=O)[O-])cc1`, the survivor count is reported as 6 of 6 (dose: 200.0 mg/kg/injection, schedule: Q01DX009 (ip), vehicle: other) and 0 of 6 (dose: 400.0 mg/kg/injection, schedule: Q01DX009 (ip), vehicle: other).

(Values after PubChem BioAssay AID248 (DTP/NCI, 2004).)
